Test [1] addresses Macrophage stimulating protein receptor (RON - Recepteur d' Origine Nantais), human (human) (UniProt Q04912). Nature of the test: immunofluorescence on live cells (endocytosis).
Test [2] has the same target. Nature of the test: immunofluorescence on RON transfected H1299 cells.
The target is the same in test [3]. The experiment in a line: Western blot of cell line lysates.

Sequences of proteins named here, by UniProt entry; tags and fusion partners are left off. Residues count along the entry.
UniProt Q04912, residues 25-1400: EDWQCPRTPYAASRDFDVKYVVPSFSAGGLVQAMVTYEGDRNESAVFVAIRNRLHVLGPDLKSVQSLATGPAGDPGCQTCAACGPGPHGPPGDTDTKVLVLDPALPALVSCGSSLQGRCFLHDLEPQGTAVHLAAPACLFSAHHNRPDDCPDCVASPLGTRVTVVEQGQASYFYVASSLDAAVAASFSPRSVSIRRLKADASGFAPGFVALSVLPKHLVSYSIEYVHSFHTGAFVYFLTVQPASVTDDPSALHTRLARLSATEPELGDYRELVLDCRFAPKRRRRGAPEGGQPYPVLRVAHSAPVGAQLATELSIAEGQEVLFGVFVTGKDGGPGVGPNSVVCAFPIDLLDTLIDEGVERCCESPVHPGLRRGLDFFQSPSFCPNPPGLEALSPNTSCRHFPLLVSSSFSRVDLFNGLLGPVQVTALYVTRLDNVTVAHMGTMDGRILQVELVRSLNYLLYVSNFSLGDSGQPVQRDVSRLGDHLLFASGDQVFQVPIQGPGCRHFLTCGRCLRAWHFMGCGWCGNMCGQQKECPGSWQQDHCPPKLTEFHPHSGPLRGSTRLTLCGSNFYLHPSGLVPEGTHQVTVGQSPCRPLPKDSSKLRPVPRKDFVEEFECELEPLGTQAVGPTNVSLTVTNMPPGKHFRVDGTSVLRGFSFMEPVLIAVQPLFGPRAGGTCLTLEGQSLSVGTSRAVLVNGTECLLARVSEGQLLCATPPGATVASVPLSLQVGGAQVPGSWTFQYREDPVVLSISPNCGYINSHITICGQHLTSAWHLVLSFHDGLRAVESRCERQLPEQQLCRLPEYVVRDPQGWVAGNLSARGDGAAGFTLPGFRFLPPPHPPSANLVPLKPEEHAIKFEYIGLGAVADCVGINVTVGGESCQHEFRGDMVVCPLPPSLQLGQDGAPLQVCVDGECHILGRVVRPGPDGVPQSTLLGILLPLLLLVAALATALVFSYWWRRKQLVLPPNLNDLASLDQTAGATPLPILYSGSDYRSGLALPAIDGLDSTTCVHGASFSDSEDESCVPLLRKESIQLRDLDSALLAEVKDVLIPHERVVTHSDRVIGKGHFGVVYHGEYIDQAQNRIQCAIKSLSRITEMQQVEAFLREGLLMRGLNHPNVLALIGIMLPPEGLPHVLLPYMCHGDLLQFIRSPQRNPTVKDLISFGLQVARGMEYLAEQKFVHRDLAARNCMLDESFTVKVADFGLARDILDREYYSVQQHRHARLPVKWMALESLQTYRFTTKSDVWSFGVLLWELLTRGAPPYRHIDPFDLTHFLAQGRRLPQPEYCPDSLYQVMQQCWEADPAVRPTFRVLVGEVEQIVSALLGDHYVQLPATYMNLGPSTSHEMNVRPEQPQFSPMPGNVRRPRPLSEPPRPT

Experimental findings from US20190194309A1 (AGENCY FOR SCIENCE TECHNOLOGY AND RESEARCH, published 2019) are described below.

Where a chain is given by its changes, count along the chain named. Results are given in words; binding and its absence hold for the method and conditions named. Some entries that bind do so weakly or less than the wild type.

B1: 5A5 (antibody, V domains shown)
VH: LEVKLEQSGPGLVKPSQSLSLTCTVTDYSITSDYAWNWIRQFPGNKLEWMGYILYSGSTTYNPSLKSRVSITRDTSKNQFFLHLDSVTTEDAATYYCASLGRGGSWGQGTTLAVSS
VL: DILMTQTPLSLPVSLGDQASISCRSSQSIVHSNGNTYLEWYLQKPGQSPKLLIYKVSNRFSGVPDRFTGSGSGTDFTLKISRVEAEDLGIYYCFQGSHAPWTFGGGTKLEIR
Consider B1, for which the binding entry in test [1] and in test [2] was “binds” each time.

B2: 6E6 (antibody, V domains shown)
VH: EVKLQQSGTVLARPGTSVKMSCKASGYIFTSYWMHWIKERPGQGLEWIGAIYPGNNDTSTNQKFKGKAKLTAVTSTSTAYLELSSLTNEDSAVYYCTRDGFYPFAYWGQGTLVTVSA
VL: DIVLTQTPLSLPVSLGDQASISCRSSQSLVYINGDTYFHWYLQKPGQSPKLLIYRVSNRFSGVPDRFSGSGSGTDFTLKISRVEAEDLGVYFCSQTKHVPYTFGGGTKLEMK
With B2, the binding result in test [3] and in test [2] was “binds” each time.

B3: 3G4 (antibody, V domains shown)
VH: B2 VH with K3Q, Q5E, Q6E, T16A, E39Q, N56S, G66D, Y94F, F101Y
VL: B2 VL with T7S
For B3, the binding result in test [3] and in test [2] was “binds” each time.

B4: 5B9 (antibody, V domains shown)
VH: EVQLQQPGAELVRPGSSVKISCKASGYEFSKYWMNWVKQRPGQGLEWIGQIFPGDGDINYNGKFKGKATLTADKSSSTAYMQLSSLTSEESAVYFCARWYYGSNYAMDYWGQGTSVTVSS
VL: DIVMTQTPSSLAVSVGEKITMSCKSSQSLLYSSNQKNYLAWYQQKPGQSPKLLIYWASTRESGVPDRFTGSGSGTDFTLTISSVKAEDLAVYYCQQYYAYRTFGGGTKLEIK
For B4, the binding result in test [2] was “binds”.

B5: 3E1 (antibody, V domains shown)
VH: DVMLVESGGGLVQPGGSMKLSCVASGFSFSDYWMNWVRQSPEKGLEWVAEIRLKSSNYATHYAESVKGRFTISRDDSESSVYLQMNNLRPEDTGFYYCTRGDYWGQGTSVTVSS
VL: DIVMTQSPATLSVTPGDGVSLSCRASQSINNNLHWYQQKSHESPRLLIKFASQSISGIPSRFSGSGSGTDFTLSINSVETEDFGMYFCQQSNSWPLTFGAGTKLELK
In the case of B5, the binding result in test [2] is listed as “binds”.
